Measurements reported in PubChem BioAssay AID602196 (INSERM, 2012).
Assay: 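Knock-downs that protect lung cancer cells from cisplatin or sensitise them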. System: human A549 lung cancer cells. Reagents: siRNA pair against human genes. Time to read-out: 48 h transfection before cisplatin; time from cisplatin to read-out not stated. Treatment: cisplatin at a dose killing half of control-siRNA cells; exact dose and duration not given. Detection: 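Cisplatin cell death as a shift from the 50% death seen with control siRNA; siRNAs toxic or growth-blocking alone scored 0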. Reading the numbers: two-siRNA summed score (-2 to +2): higher = both siRNAs protect from cisplatin killing; -2 means both sensitise; mean protection from cisplatin (shift in death) and protection from cisplatin (shift in death), siRNA C: higher = protection from cisplatin killing. Rule for the call: 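Each siRNA scores 0 if harmful alone by LDH or WST-1, otherwise +1 if it reduces and -1 if it increases cisplatin killing; a gene is active when both siRNAs agree (sum +2 or -2)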. Meaning of the calls: active = both siRNAs shift cisplatin killing the same way; inactive = no consistent shift, or siRNA harmful alone.
The whole screen tested about 23,000 reagents; shown is a part drawn at random. 455 of all reagents (2%) were called active. 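Active includes both protection and sensitisation; some change values fall well beyond the stated -50 to +50 range.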 Reagents against one gene are numbered here. Not all columns of the deposit are shown. Not stated in the record: the amount of reagent.

gene | reagent no. | two-siRNA summed score (-2 to +2) | mean protection from cisplatin (shift in death) (%) | protection from cisplatin (shift in death), siRNA C (%) | Call
RNF26 | 1 | 1 | 14.4 | -4.1 | inactive
SEMA5A | 1 | 0 | 4.2 | -13.2 | inactive
DCLRE1A | 1 | -2 | -29 | -29.9 | active
PSMA6 | 1 | 0 | 9.6 | -3.7 | inactive
LYRM4 | 1 | -1 | 1.5 | 17.9 | inactive
NDUFS4 | 1 | 0 | -21.7 | -15.5 | inactive
ZNF468 | 1 | 0 | 0.5 | 1.7 | inactive
HCFC1R1 | 1 | 0 | -5.1 | -16.2 | inactive
KCND3 | 1 | 0 | 0.5 | 9.3 | inactive
PSD | 1 | 0 | -1.1 | -12.5 | inactive
CARD18 | 1 | 0 | -1 | 7.9 | inactive
LOC388345 | 1 | 0 | -2.9 | 4.7 | inactive
ZNF713 | 1 | 1 | 5.4 | 8.4 | inactive
SAMD9 | 1 | 0 | 7 | 13.4 | inactive
RAB3A | 1 | 0 | -3.7 | -6.4 | inactive
THAP1 | 1 | 1 | 15.3 | 24.1 | inactive
LOC441060 | 1 | 0 | 4.7 | 6.7 | inactive
ERMN | 1 | 0 | 2.3 | 7.9 | inactive
COX8C | 1 | 0 | 9.7 | 18 | inactive
PIK3R4 | 1 | 0 | -4.3 | -6.9 | inactive
LOC439965 | 1 | 0 | -1.4 | -2.1 | inactive
GTSCR1 | 1 | 0 | 3.6 | -3.5 | inactive
PTGES3 | 1 | 0 | -2.3 | -4.4 | inactive
HM13 | 1 | 0 | 2.4 | 4.2 | inactive
LOC164714 | 1 | 0 | 14.5 | 8.7 | inactive
SLC29A1 | 1 | 0 | -2.6 | -2.9 | inactive
CRYGN | 1 | 1 | 10 | 0.2 | inactive
GSPT1 | 1 | 0 | -0.5 | 0.2 | inactive
NUP93 | 1 | 0 | -0.7 | -0.9 | inactive
MBD1 | 1 | -1 | -19.1 | 4.7 | inactive
PSD3 | 1 | 0 | 4.1 | -7.4 | inactive
ZSCAN16 | 1 | 0 | -7.7 | -8.8 | inactive
PAIP2 | 1 | 0 | 17.2 | 20.9 | inactive
TRIM61 | 1 | -1 | -11.8 | -20.8 | inactive
LOC390414 | 1 | 0 | 11 | 17.1 | inactive
ARHGAP9 | 1 | 0 | 0.5 | 2.5 | inactive
LINC01142 | 1 | 0 | -2.3 | -9.7 | inactive
LINC00474 | 1 | 0 | -1 | 7.5 | inactive
CD300LF | 1 | 1 | 8.8 | 25.8 | inactive
LOC283523 | 1 | 0 | 5.2 | 2.8 | inactive
SNUPN | 1 | 0 | 1.9 | 0.8 | inactive
LOC340221 | 1 | 1 | 10.9 | 0.8 | inactive
DPP7 | 1 | 0 | 4.4 | -5.2 | inactive
KRR1 | 1 | 0 | 14.9 | 31.4 | inactive
LOC441619 | 1 | 0 | -0.4 | -0.9 | inactive
UTP15 | 1 | 1 | 8 | 10.2 | inactive
LOC440513 | 1 | -1 | -6.6 | -17.9 | inactive
RPL41 | 1 | 0 | 12.4 | 10 | inactive
KRT37 | 1 | 0 | 11.1 | 7.6 | inactive
LOC401518 | 1 | 0 | 7.9 | 10.6 | inactive
SLC4A5 | 1 | 0 | 12.4 | 15.6 | inactive
OIT3 | 1 | -1 | -16.3 | -8.1 | inactive
DTWD1 | 1 | 0 | 10 | 12.6 | inactive
DGKE | 1 | -1 | -5.1 | -0.4 | inactive
ITPR3 | 1 | 0 | 1.9 | 12.6 | inactive
TCERG1L | 1 | 0 | 17.3 | 27.6 | inactive
HNRNPA1P70 | 1 | -1 | -1.6 | 11.7 | inactive
BMP2 | 1 | 1 | 15.2 | 15.2 | inactive
EFNB1 | 1 | 1 | 10.9 | 26.4 | inactive
OPN1SW | 1 | -1 | -4.8 | 5 | inactive
SEMA4C | 1 | 0 | -0.2 | -1.5 | inactive
MPP2 | 1 | 0 | -15.6 | -31.4 | inactive
DGKQ | 1 | 2 | 23.9 | 29.2 | active
LOC388528 | 1 | 0 | 1.9 | 1.8 | inactive
UCK1 | 1 | 0 | -14.5 | -20 | inactive
PPP1R36 | 1 | 0 | -1.5 | -0.6 | inactive
ALKAL1 | 1 | 0 | 3.9 | -2.2 | inactive
ISYNA1 | 1 | 0 | 3 | 18.8 | inactive
ISYNA1 | 2 | 0 | 8.1 | 12.6 | inactive
SPMIP5 | 1 | 0 | 6 | 7.1 | inactive
ENGASE | 1 | 0 | 1.8 | -2.8 | inactive
ZNF234 | 1 | 0 | 7.4 | 8.9 | inactive
RWDD2B | 1 | 0 | 6.3 | 3.3 | inactive
